In US8022177B2, “Peptides and calcium regulation in mammalian cells” (The Board of Trustees of the University of Illinois, priority 2005, dated 2011):

Tested on: Cav3.1 protein
Experiment: Western blot of Cav3.1 protein in fractions of HEK-293/Cav3.1 cells expressing γ subunits
Format: cell-based
Details: HEK-293/Cav3.1 cell fractions and total

Row | Molecule | Effect on Cav3.1 protein expression
1 | γ6L: rat calcium channel γ6 subunit, long isoform (AF361343), SEQ ID NO:48 (protein, listed as Rattus norvegicus) MMWSNFFMQEEDRRRTAVGRRRAQEQQNLGLTPEREGKIKLGLLVAIVGATLAVLAVGTEFWVELNTYKTNGSAVCEAAHLGLWKVCIKRLWQADVPAGRETCGPAELPGEANCTYFKFFTTGENAHIFQRTTKKEVNLAAAVIAVLGLTAMALGCLCVIMVLSKGAEFLLRLGAVCFGLSGLLLFVSLEVFRHSVRALLQGVNPETPPAPRLAYEYSWSLGCGVGAGLILLLGGVCFLLLTLPSWPWRSLCPKRGGPTA | no down-regulation
2 | γ4: rat calcium channel γ4 subunit (AF361341), SEQ ID NO:47 (protein, listed as Rattus norvegicus) MVRCDRGLQMLLTTAGAFAAFSLMAIAIGTDYWLYSSAHICNGTNLTMDDGPPPRRARGDLTHSGLWRVCCIEGIYKGHCFRINHFPEDNDYDHDSSEYLLRIVRASSVFPILSTILLLLGGLCIGAGRIYSRKNNIVLSAGILFVAAGLSNIIGIIVYISSNTGDPSDKRDEDKKNHYNYGWSFYFGALSFIVAETVGVLAVNIYIEKNKELRFKTKREFLKASSSSPYSRMPSYRYRRRRSRSSSRSTEASPSRDASPVGLKITGAIPMGELSMYTLSREPLKVTTAASYSPDQDAGFLQMHDFFQQDLKEGFHVSMLNRRTTPV | No statistically significant effect
